# Results: article PMC11949052
# By UniProt entry, the sequences of proteins in these tests, tags left out. Where a name states a change or a piece, a line headed by the entry shows the natural chain unless it says otherwise.
# UniProt P03952: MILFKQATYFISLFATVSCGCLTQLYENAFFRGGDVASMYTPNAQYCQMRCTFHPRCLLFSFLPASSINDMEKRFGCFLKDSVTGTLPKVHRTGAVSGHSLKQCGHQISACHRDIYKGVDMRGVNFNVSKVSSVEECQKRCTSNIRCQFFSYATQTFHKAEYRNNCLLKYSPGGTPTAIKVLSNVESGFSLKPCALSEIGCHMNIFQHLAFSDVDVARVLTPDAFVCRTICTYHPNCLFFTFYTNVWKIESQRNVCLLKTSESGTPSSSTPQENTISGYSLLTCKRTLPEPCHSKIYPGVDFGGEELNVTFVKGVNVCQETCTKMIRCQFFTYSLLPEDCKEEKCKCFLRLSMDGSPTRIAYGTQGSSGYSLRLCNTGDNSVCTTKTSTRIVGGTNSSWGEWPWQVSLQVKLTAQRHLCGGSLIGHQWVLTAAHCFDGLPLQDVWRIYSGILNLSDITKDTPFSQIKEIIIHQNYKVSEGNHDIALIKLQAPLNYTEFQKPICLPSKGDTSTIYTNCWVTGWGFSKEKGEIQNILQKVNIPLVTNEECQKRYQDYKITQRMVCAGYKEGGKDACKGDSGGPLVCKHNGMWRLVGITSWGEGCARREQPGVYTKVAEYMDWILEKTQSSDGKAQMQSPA
# Changes are numbered by the printed parent chain. In names and notes the source's numbering stands. These are yes or no findings as the source states them, for the method shown. Some entries that bind do so weakly or less than the wild type.
# T1: activated C1s (C1s̄) (UniProt P09871)
# T1 sequence (chain, biotinylated | biotinylated) 1: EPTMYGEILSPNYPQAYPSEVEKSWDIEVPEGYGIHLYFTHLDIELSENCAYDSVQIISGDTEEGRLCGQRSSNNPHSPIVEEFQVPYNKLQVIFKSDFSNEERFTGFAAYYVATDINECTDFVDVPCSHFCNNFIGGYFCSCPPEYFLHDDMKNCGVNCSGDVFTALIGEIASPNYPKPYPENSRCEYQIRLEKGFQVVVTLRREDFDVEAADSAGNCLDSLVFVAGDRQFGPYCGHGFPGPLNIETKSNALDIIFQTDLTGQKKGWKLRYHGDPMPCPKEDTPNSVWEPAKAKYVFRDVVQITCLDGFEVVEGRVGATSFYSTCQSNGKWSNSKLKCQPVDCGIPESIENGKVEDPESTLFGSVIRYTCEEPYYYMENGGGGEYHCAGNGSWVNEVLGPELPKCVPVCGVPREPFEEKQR
# T1 sequence (chain, biotinylated | biotinylated) 2: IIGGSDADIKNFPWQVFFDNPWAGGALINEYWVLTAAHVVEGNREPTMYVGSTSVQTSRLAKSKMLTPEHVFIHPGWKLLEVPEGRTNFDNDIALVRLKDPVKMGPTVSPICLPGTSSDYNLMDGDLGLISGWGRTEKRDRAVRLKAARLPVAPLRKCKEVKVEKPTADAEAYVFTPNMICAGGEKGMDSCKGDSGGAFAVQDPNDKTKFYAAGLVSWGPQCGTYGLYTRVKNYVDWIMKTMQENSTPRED
# B1: C1-INH N271-N272del (protein, UniProt P05155 23-500)
# chain: NPNATSSSSQDPESLQDRGEGKVATTVISKMLFVEPILEVSSLPTTNSTTNSATKITANTTDEPTTQPTTEPTTQPTIQPTQPTTQLPTDSPTQPTTGSFCPGPVTLCSDLESHSTEAVLGDALVDFSLKLYHAFSAMKKVETNMAFSPFSIASLLTQVLLGAGENTKTNLESILSYPKDFTCVHQALKGFTTKGVTSVSQIFHSPDLAIRDTFVNASRTLYSSSPRVLSNNSDANLELINTWVAKNTKISRLLDSLPSDTRLVLLNAIYLSAKWKTTFDPKKTRMEPFHFKNSVIKVPMMNSKKYPVAHFIDQTLKAKVGQLQLSHNLSLVILVPQNLKHRLEDMEQALSPSVFKAIMEKLEMSKFQPTLLTLPRIKVTTSQDMLSIMEKLEFFDFSYDLNLCGLTEDPDLQVSAMQHQTVLELTETGVEAAAASAISVARTLLVFEVQQPFLFVLWDQQHKFPVFMGRVYDPRA
# B2: C1-INH S255G (protein, UniProt P05155 23-500)
# chain: NPNATSSSSQDPESLQDRGEGKVATTVISKMLFVEPILEVSSLPTTNSTTNSATKITANTTDEPTTQPTTEPTTQPTIQPTQPTTQLPTDSPTQPTTGSFCPGPVTLCSDLESHSTEAVLGDALVDFSLKLYHAFSAMKKVETNMAFSPFSIASLLTQVLLGAGENTKTNLESILSYPKDFTCVHQALKGFTTKGVTSVSQIFHSPDLAIRDTFVNASRTLYSSSPRVLSNNGDANLELINTWVAKNTNNKISRLLDSLPSDTRLVLLNAIYLSAKWKTTFDPKKTRMEPFHFKNSVIKVPMMNSKKYPVAHFIDQTLKAKVGQLQLSHNLSLVILVPQNLKHRLEDMEQALSPSVFKAIMEKLEMSKFQPTLLTLPRIKVTTSQDMLSIMEKLEFFDFSYDLNLCGLTEDPDLQVSAMQHQTVLELTETGVEAAAASAISVARTLLVFEVQQPFLFVLWDQQHKFPVFMGRVYDPRA
# B3: C1-INH N272D (protein, UniProt P05155 23-500)
# chain: B2 chain with G233S, N250D
# B4: C1-INH S255T (protein, UniProt P05155 23-500)
# chain: B2 chain with G233T
# B5: C1-INH N272A (protein, UniProt P05155 23-500)
# chain: B2 chain with G233S, N250A
# B6: C1-INH N238A (protein, UniProt P05155 23-500)
# chain: B2 chain with N216A, G233S
# B7: C1-INH A239D (protein, UniProt P05155 23-500)
# chain: B2 chain with A217D, G233S
# B8: C1-INH N271A (protein, UniProt P05155 23-500)
# chain: B2 chain with G233S, N249A
# B9: C1-INH N271del (protein, UniProt P05155 23-500)
# chain: NPNATSSSSQDPESLQDRGEGKVATTVISKMLFVEPILEVSSLPTTNSTTNSATKITANTTDEPTTQPTTEPTTQPTIQPTQPTTQLPTDSPTQPTTGSFCPGPVTLCSDLESHSTEAVLGDALVDFSLKLYHAFSAMKKVETNMAFSPFSIASLLTQVLLGAGENTKTNLESILSYPKDFTCVHQALKGFTTKGVTSVSQIFHSPDLAIRDTFVNASRTLYSSSPRVLSNNSDANLELINTWVAKNTNKISRLLDSLPSDTRLVLLNAIYLSAKWKTTFDPKKTRMEPFHFKNSVIKVPMMNSKKYPVAHFIDQTLKAKVGQLQLSHNLSLVILVPQNLKHRLEDMEQALSPSVFKAIMEKLEMSKFQPTLLTLPRIKVTTSQDMLSIMEKLEFFDFSYDLNLCGLTEDPDLQVSAMQHQTVLELTETGVEAAAASAISVARTLLVFEVQQPFLFVLWDQQHKFPVFMGRVYDPRA
# B10: C1-INH K273del (protein, UniProt P05155 23-500)
# chain: B9 chain with K250N
# modifications: additional N-linked glycan at N272 (new sequon NN272IS)
# B11: C1-INH N272del (protein, UniProt P05155 23-500)
# chain: B9 chain
# Biological target: T1, activated C1s (C1s̄)
# Experiment: ELISA; Quidel kit: C1-INH (transfectant supernatant) incubated with biotinylated C1s̄, the complex captured on streptavidin-coated wells, detected with goat anti-human C1-INH Ab; C1-INH at 125 ng/mL, 250 ng/mL, 500 ng/mL and 1 μg/mL; relative absorbance (450 nm) against WT; only the target purified
row,binding,Binder
1,binds,B1
2,binds,B2
3,binds,B3
4,binds,B4
5,binds,B5
6,binds,B6
7,binds,B7
8,binds,B8
9,binds,B9
10,binds,B10
11,binds,B11

# Biological target: kallikrein (PKa) (human) (UniProt P03952)
# Experiment: ELISA; biotinylated FXIIa or PKa (25 μL of 2 μg/mL) with an equivalent molar amount of C1-INH (transfectant supernatant) in 2% BSA in PBS-T on a streptavidin-coated plate, 1 hour at 37°C; bound complex detected with anti-C1-INH mAb; serially diluted samples; relative absorbance against WT; only the target purified
row,binding,Binder
1,binds,B1
2,binds,B2
3,binds,B3
4,binds,B4
5,binds,B5
6,binds,B6
7,binds,B7
8,binds,B8
9,binds,B9
10,binds,B10
11,binds,B11
